{"source": "ChEMBL document CHEMBL4411333", "about": "“Optimization of Fused Bicyclic Allosteric SHP2 Inhibitors” (J Med Chem, 2019)", "experiment": "physchem", "conditions": "buffer, pH 6.8"}
{"smiles": "C[C@@H]1OCC2(CCN(c3nc4[nH]nc(-c5cccc(Cl)c5Cl)c4c(=O)n3C)CC2)[C@@H]1N", "values": [{"measurement": "solubility thermodynamic", "result": 420, "unit": "µM"}]}
